The other results are listed elsewhere or left out. These are further read-outs of the screen, such as a control signal, another cell line or another target. No call is given for them. Compounds called inactive in the main read-out are mostly missing here. Words in brackets tell the shape of the fitted curve; partial curves, single points and poor fits give uncertain potencies.
Assay: qHTS Assay for Lipid Storage Modulators in Drosophila S3 Cells;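 on cell number change: cells counted by Cell Tracker Red CMTPX staining in the red channel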
Details: BODIPY lipid droplet fluorescence, 18-24 h; for cell number change: measured here: cell count max response, cells fed with added oleic acid
In short: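 Laser-scanning cytometry quantifies lipid droplet accumulation (500–530 nm total intensity; droplet/cell object ratio) in oleic acid-fed (400 uM added) Drosophila S3 cells treated with a concentration series. 20 uM Triacsin C defined 100% inhibition.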

[1] = measured here: cell number channel AC50, cells fed with added oleic acid
[2] = measured here: lipid fluorescence (Fed channel) AC50, cells fed with added oleic acid

Compound	cell number change	AC50 [1]	AC50 [2]
COc1ccc(CCNC(=O)C(=O)NCC2OCCCN2S(=O)(=O)c2cc(C)ccc2C)cc1 (stereo not given)	-6.94%	–	–
Cc1oc(C(=O)Nc2ccc(C(=O)O)cc2)cc1COc1ccccc1	19.2%	–	–
O=C(Cc1ccccc1)NN1C(=O)C2C3C=CC(C3)[C@@H]2C1=O (stereo not given in full)	–	920 nM [rising, partial curve]	–
CC(C)N1C(=O)CC(Nc2cccc3cccc(N)c23)C1=O (stereo not given)	37.8%	–	–
Cc1nn(C)c(Cl)c1/C=N/OC(=O)c1ccccc1	-40.7%	–	–
COc1ccc(NC(=O)CS(=O)CC(=O)Nc2cccc3cccnc23)cc1 (stereo not given)	23.1%	–	2590 nM [rising, full curve]
CS(=O)(=O)NCCNc1ncc(C(F)(F)F)cc1Cl	38.4%	3260 nM [rising, full curve]	–
O=C(NCc1cccs1)c1cccnc1C(=O)O	-36.1%	58 nM [falling, full curve, poor fit]	29100 nM [falling, single point]
Cc1ccc(Cn2ccc(-c3cnc(-c4ccccc4)s3)n2)cc1	-68.4%	1840 nM [rising, partial curve]	2310 nM [rising, partial curve]
COc1ccc(Cl)cc1NC(=O)C/C(C)=N/NC(=O)C(=O)NCc1ccccc1	-26.3%	–	–
CC(C)OC(=O)C1=C2SCC(=O)N2C(N)=C(C#N)C1	-50.7%	23100 nM [falling, single point]	–
COC(=O)c1sc(NC(=O)COc2cccc3ccccc23)nc1C	-28.8%	–	5800 nM [falling, full curve, poor fit]
Cc1ccc(NC(=O)CCN2CCC(Cc3ccccc3)CC2)cc1	-3.65%	–	–
c1ccc(N=P(N2CCOCC2)(N2CCOCC2)N2CCOCC2)cc1	31.6%	29100 nM [rising, single point]	–
O=C(CSc1nc(C(F)(F)F)cc(=O)[nH]1)N1CCCCCC1	2.91%	–	9200 nM [falling, partial curve, poor fit]
CCN(CC)CCNS(=O)(=O)c1ccc(OC)c(Br)c1	-17.6%	820 nM [falling, full curve, poor fit]	20600 nM [falling, partial curve]
COc1cccc(NC(=O)CSC2=C(C#N)C(c3ccco3)C3=C(CCCC3=O)N2)c1 (stereo not given)	-13.5%	–	5.8 nM [rising, full curve, poor fit]
O=[N+]([O-])c1cccc(NC(=S)Nc2nc(-c3ccccc3Cl)cs2)c1	–	820 nM [falling, full curve, poor fit]	–
CCCCNc1oc(-c2cccs2)nc1S(=O)(=O)c1ccccc1	-12.7%	–	2910 nM [rising, partial curve]
Cc1ccccc1OCC(=O)Nc1cccc(S(=O)(=O)NC2=NCCCCC2)c1	41.3%	7310 nM [rising, single point]	73.1 nM [rising, full curve, poor fit]

Compound	cell number change	AC50 [1]	AC50 [2]
COc1ccc(Cl)cc1-c1nc(SCC(=O)NC(C)(C)C)n[nH]1	-48.2%	–	29100 nM [falling, partial curve, poor fit]
Cc1ccc(NC(=O)N(Cc2cc3cc(C)cc(C)c3[nH]c2=O)CC2COCCO2)cc1 (stereo not given)	-8.16%	2910 nM [rising, single point]	7310 nM [rising, partial curve]
Cc1c(C(=O)N2CCN(c3ccc([N+](=O)[O-])cc3)CC2)sc2ncn(CC(=O)N3CCOCC3)c(=O)c12	3.81%	–	5.17 nM [falling, full curve, poor fit]
Cc1ccc(S(=O)(=O)N2CCOC2CNC(=O)C(=O)NCc2ccc(Cl)cc2)cc1 (stereo not given)	21.1%	–	29100 nM [rising, single point]
CS(=O)(=O)c1cccc(-c2nnc(NC(=O)c3ccc(S(=O)(=O)N4CCCC4)cc3)o2)c1	6.37%	–	6510 nM [falling, single point]
CN(C)S(=O)(=O)n1cc(/C=C(\NC(=O)c2ccccc2F)C(=O)N2CCCC2)c2ccccc21	–	–	6510 nM [rising, single point]
Cc1cc(NC(=O)CCC(=O)N(c2ccccc2)C2(C(=O)NC3CCCCC3)CCCC2)no1	0.484%	–	–
O=c1n(Cc2ccccc2)nc2n1-c1ccccc1SC2	17.9%	–	3260 nM [rising, full curve, poor fit]
CC(=O)c1c(C)[nH]c(C(=O)NCCC2=CCCCC2)c1C	-11.3%	–	580 nM [rising, single point]
CCc1nc(C)cn1S(=O)(=O)c1cc(C)c(OC)c(C)c1C	123%	1160 nM [rising, partial curve]	2590 nM [rising, partial curve]
COc1ccc(C)cc1N(CC(=O)NCCSCc1ccco1)S(=O)(=O)c1ccc(C)cc1	-9.4%	–	366 nM [rising, full curve]
CCOC(=O)c1sc(NC(=O)COc2ncnc3ccccc23)c(C(=O)OCC)c1C	-33.3%	7310 nM [falling, partial curve, poor fit]	651 nM [falling, single point]
Cc1ccc(S(=O)(=O)N2CCC3(CC2)CC(=O)c2ccccc2O3)cc1	-11.9%	–	2590 nM [falling, single point]
COC(=O)Cn1cc(C(=O)c2ccco2)c2ccccc21	4.34%	–	580 nM [falling, single point]
COc1ccc(N/C(C)=C/C(=O)c2ccccc2)cc1	46.3%	18400 nM [rising, single point]	2310 nM [rising, full curve]
O=C1COc2ccc(C(=O)c3ccccc3)cc2CN1	-35.1%	20600 nM [falling, single point]	29100 nM [falling, single point]
Cc1ccc(C(=O)Nc2ccc(C(=O)N/N=C/c3ccncc3)cc2)cc1	5.02%	6510 nM [rising, single point]	–
COc1cc(/C=N/NC(=O)c2ccc(NS(=O)(=O)c3cccs3)cc2)cc(OC)c1O	9.92%	–	2910 nM [rising, single point]
c1csc(Cn2c(-c3cccs3)nc3ccccc32)c1	-3.01%	–	–
O=C(COC(=O)c1ccc2c(c1)C(=O)N(CCc1ccccc1)C2=O)Nc1ccc(OC(F)F)cc1	0.331%	–	–

Compound	cell number change	AC50 [1]	AC50 [2]
Cc1cccc(Cn2cc3c(=O)n(Cc4cccc(F)c4)nc-3c3ccccc32)c1	14.9%	461 nM [rising, single point]	–
Cc1ccc(CCC2C3=C(CCCC3=O)OC3=C2C(=O)CCC3)cc1	68.7%	23100 nM [rising, single point]	4610 nM [rising, single point]
NNC(=O)CNC(c1ccccc1)c1cc(Br)ccc1N (stereo not given)	14.5%	1640 nM [rising, partial curve, poor fit]	1840 nM [rising, partial curve]
CC(=O)c1cc(F)c(N2CCCC2)cc1C	18.2%	–	4110 nM [rising, partial curve, poor fit]
O=C(/C=C/c1ccc(Cl)cc1)NCCSc1ccccc1	-40.6%	20600 nM [falling, single point]	23100 nM [falling, single point]
O=C(COC(=O)CNC(=O)c1ccccc1F)Nc1cccc(S(=O)(=O)N2CCCCCC2)c1	81.9%	29100 nM [rising, partial curve, poor fit]	–
COc1ccc(N2CC(C)Cn3c2nc2c3c(=O)n(CCc3ccccc3)c(=O)n2C)cc1 (stereo not given)	13.4%	–	41.1 nM [rising, single point]
COc1ccc(Cc2[nH]n3c(=O)cc(C(C)C)nc3c2-c2ccccc2)cc1	-7.32%	–	–
O=C(Nc1ccnn1C1CCN(C/C=C/c2ccccc2)CC1)c1ccccc1Cl	–	–	3660 nM [rising, partial curve]
Cc1sc2ncnc(SCC(=O)N3CCC(c4noc5ccc(F)cc45)CC3)c2c1C	–	3260 nM [falling, partial curve]	184 nM [falling, full curve, poor fit]
O=C1NC(=O)/C(=C/c2ccc(-c3cccc([N+](=O)[O-])c3)o2)S1	-25.1%	–	25900 nM [falling, partial curve]
O=C(Nc1ncc([N+](=O)[O-])s1)C1CC(=O)N(c2ccc(F)cc2)C1 (stereo not given)	18.4%	–	–
O=C(COc1ccc(Br)cc1)N/N=C1\SCC(=O)N1c1ccc(F)cc1	7.2%	–	20600 nM [rising, partial curve, poor fit]
Cc1nc(-c2ccc(S(=O)(=O)N3CCCCCC3)cc2)cs1	37.2%	580 nM [rising, full curve]	18400 nM [rising, partial curve]
Cc1nn(C(C)C(=O)NC(C)CCc2ccccc2)c(=O)c2cc3occc3n12 (stereo not given)	–	–	580 nM [rising, single point]
CS(=O)(=O)CCC(C(=O)OCC(=O)c1ccc(Cl)cc1)N1C(=O)c2ccccc2C1=O (stereo not given)	4.6%	–	1160 nM [falling, single point]
Cc1csc2ncnc(NNC(=O)c3ccc(Cl)cc3)c12	-21.7%	580 nM [falling, full curve, poor fit]	580 nM [falling, full curve, poor fit]
Cc1onc(-c2c(F)cccc2Cl)c1C(=O)NC(=S)NC1CCS(=O)(=O)C1 (stereo not given)	-38.9%	25900 nM [falling, partial curve, poor fit]	5.17 nM [falling, full curve, poor fit]

Taken from above:
Entry for O=C(COC(=O)CNC(=O)c1ccccc1F)Nc1cccc(S(=O)(=O)N2CCCCCC2)c1 under cell number change: 81.9%
Entry for O=C1NC(=O)/C(=C/c2ccc(-c3cccc([N+](=O)[O-])c3)o2)S1 under AC50 [2]: 25900 nM [falling, partial curve]
